# Source: PubChem BioAssay AID1347423 (Functional Genomics Laboratory (NCATS/FGL), 2020)
# The campaign covered roughly 52,000 sequences. About 210 (0.4%) were called active.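 How the source made its calls: active means gene whose silencing raises cell survival under the drug, median off-target-corrected z-score across its silencing RNAs 2 or more; inactive means the rest.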 The list shows a part of the results.
# Assay: Resistance to Poly (ADP-Ribose) Polymerase inhibitor: Gene Identification via Genome-wide siRNA Screen
# Details: mouse BRCA2 R2336H ES cells, olaparib, CellTiter-Glo viability; hits give high values
# Procedure, shortened: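 Genome-wide siRNA screen (3 siRNAs/gene, 20 nM) in mouse ES cells carrying hypomorphic BRCA2 R2336H; olaparib 500 nM added 48 h post-transfection, CellTiter-Glo viability 72 h later. Normalized to plate-median negative control; MAD z-scores, gene median, seed-adjusted.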
row,Sequence,z-score
1,GGUUUGAUAUCCAGGUGCATT against 3110056O03Rik,inactive: 2.99
2,GGUGUUCUUUGAACUCAAUTT against Pcx,inactive: 1.86
3,GGGUGCUGAACAGUCACAATT against Rab12,inactive: -2.78
4,GCUUCGCACCUACAUCAUGTT against Pnmt,inactive: 0.193
5,GGUCAAGAAUGUAGCUGAUTT against Atp6v0d1,inactive: -1.36
6,GGGUCUGUUUCCUUCUGGUTT against Olfr214,inactive: -1.84
7,GGAUCCAAGGUGAAAAUAUTT against 2900046G09Rik,inactive: -1.09
8,GGAGCACUAAAUCAAAAAATT against Ptprz1,inactive: 0.552
9,GGAAAAACUGGUAUCUUCCTT against MGC28180,inactive: -0.953
10,GGCCAGUUCUAUGUCAUGATT against Usf2,inactive: -0.331
11,GGAGUUAGUGGUCUCCACUTT against A130023I24Rik,inactive: 1.37
12,GGUGGAAUUAUGCAUGCUATT against Olfr1094,inactive: -1.55
13,GGUUUGUGAACAGCUGUACTT against Gfra3,inactive: -1.94
14,GGAAAACCUGAUGACAGACTT against Apoc2,inactive: 1.34
15,GGUACACAUGAGACAAUAUTT against MGC51670,inactive: -0.968
16,GGCAGUUACCUAAAACUAUTT against Polh,inactive: -0.584
17,GGACUGAUGGAUCCUUCCATT against Krtcap3,inactive: -2.06
18,GGUGAAUAAUAAAUGUCUGTT against Igsf9,inactive: -0.828
19,GGAUGAUGACAUGAAGUUATT against Nalp5,inactive: -0.0827
20,CCAUAUUUGAAGUUUGAACTT against MGC68340,inactive: 0.969
21,CCGCUACGCCAUGUAUAAATT against Upp1,inactive: -0.413
22,GGAAUAAAGAGGUUAAGGGTT against Olfr38,inactive: 0.203
23,CCCGCUUAUGUGUCAGCAUTT against Sdhd,inactive: 0.0555
24,GGACUGGACACUGAAUAUGTT against Tom1l2,inactive: 0.0995
25,GGCUGGUAAAUCCAACUACTT against Xab2,inactive: -0.669
26,GGAGUAUAUCCUAUUGAUGTT against Sdc2,inactive: -0.762

# Part of the list above in another layout.
row | Sequence | z-score
8 | GGAGCACUAAAUCAAAAAATT against Ptprz1 | inactive: 0.552
12 | GGUGGAAUUAUGCAUGCUATT against Olfr1094 | inactive: -1.55
23 | CCCGCUUAUGUGUCAGCAUTT against Sdhd | inactive: 0.0555

# Later entries.

row,Sequence,z-score
1,GGUUAUAAGCUCCAUCUUGTT against Acy1,inactive: 2.62
2,CCAAACCAGGUGUUGUCUUTT against Esam1,inactive: -0.636
3,GCAGUGCGUUAUCUACUGATT against Rb1,inactive: -0.342
4,GGAGCUGAUUUUCCUAAAGTT against Dcl1,inactive: 1.4
5,CCCAGACCAUACUACGGAUTT against Calb2,inactive: -0.0646
6,GCUACAUGGAAAGAUACGGTT against Gpr73l1,inactive: 0.159
7,GGGUCUACCACAUGUACAUTT against Slc16a6,inactive: 0.26
8,GAUCAGAUGUUUGGGACUUTT against Olfr512,inactive: 1.63
9,GGUAUUUGAAGAACGAAGATT against Fbxo16,inactive: -0.283
10,GCUACGGAACAAUCACAGCTT against Jarid1d,inactive: 0.15
11,GCUAGUCAAGACCAGUCCGTT against Ttl,inactive: -2.08
12,GGGAGUGUGAGGUAUGAACTT against Lrrtm4,inactive: 0.402
13,GGCGAGAGUAUGAACACUUTT against Evpl,inactive: -0.6
14,GGUGGAGUGUUAUUAUAGGTT against 1810030N24Rik,inactive: 0.272
15,CGGCUUCAGGAGAACAUUATT against Mmaa,inactive: -0.563
16,GGAAGUGUGUACCACAUCUTT against D2Ertd391e,inactive: -0.154
17,CGAACUGGCCAAGAGUUACTT against Nras,inactive: -0.976
18,GCCAAUCCCUAUGAGAUGATT against 1300018I05Rik,inactive: 0.537
19,CGGAAGAACUACAAGUCGATT against 2610511M17Rik,inactive: 0.123
20,GGAGAUGAUGCCGUCAUUCTT against Chaf1b,inactive: -1.61
21,GGGUAACAUCCUCAUGACATT against Zfp282,inactive: 1.79
22,GGACUUAGAGAGUAUGGACTT against Ctdp1,inactive: -0.322
23,GCACGUAUGGUCAACAUCGTT against Rab2b,inactive: 1.07
24,GCUGAAGCAUACAUUUGUGTT against T2R37,inactive: 0.00626
25,GGAAAAGAAGACCUACACCTT against Ppp1r1c,inactive: 0.444
26,GGAACUGAGGUUUUUAAAGTT against D130072O21Rik,inactive: 0.754

# Looked up one by one from above (2):
row,Sequence,z-score
13,GGCGAGAGUAUGAACACUUTT against Evpl,inactive: -0.6
10,GCUACGGAACAAUCACAGCTT against Jarid1d,inactive: 0.15

# (further entries)

row,Sequence,z-score
1,CGAGCAAGCUGACAUCUUUTT against Tbc1d4,inactive: -0.472
2,GCUUCAUGGUGGAUUCAGATT against Bai2,inactive: 0.0149
3,GGUAGUACCGUGUUAAGUGTT against Uchl5,inactive: -0.0494
4,GGCUUUUCUGAGGAGCACATT against Cbx5,inactive: 1.92
5,GGAUUGGUUACCAAAUGGUTT against Mapk6,inactive: 0.258
6,CCUAGACGAUGUCAUGAAGTT against Lrrc4b,inactive: 0.916
7,GGUCUGACCUGUUUGAUCATT against FHOS2,inactive: 0.752
8,GGUCUUGUUUCUUGAGACCTT against C130050O18Rik,inactive: 0.341
9,GCACUCUGCCUGAAAUACCTT against Gm14,inactive: 0.0126
10,GGAGCAAAAUUCACAGUCUTT against Bcl7a,inactive: -0.253
11,GGAUCUAGAUACUUCUAGUTT against 2010004O20Rik,inactive: 0.828
12,GCACGUUCAGUGCACACCUTT against Nubp1,inactive: 0.988
13,GGCCUUAUGUCUUGUAUAUTT against Pip5k1a,inactive: -0.439
14,GGACACUCAAAAACAACUGTT against A030003A19Rik,inactive: -0.807
15,GGAGGUAUUCACAAAGAGATT against D13Ertd275e,inactive: -0.0343
16,GGCAGUUCUUAAGUAAUCATT against 4931440F15Rik,inactive: -2.04
17,GGUUUAUGCUGUGAAUACATT against Nupl1,inactive: -0.569
18,CCAAAAUGGAAUGCUCUUCTT against 6330416L07Rik,inactive: -0.746
19,CCCAGGCACUUGUUUACAGTT against Stim2,inactive: 0.00752
20,GCAUCUAUUGGAUUUACAUTT against Nup153,inactive: -2.02
21,CCCACAGAAUCACUCCAAGTT against Utp14a,inactive: -2.29
22,CCCAUCAUUAGAAUUACUUTT against Vdac2,inactive: -0.255
23,CGGGACCUUGUUGAUAACUTT against C130036G08,inactive: -0.0758
24,GGACUUUUUUCCAGAUUAUTT against Paip1,inactive: 0.678
25,CCUAAGCUUAGAUCAACAUTT against Dhx36,inactive: 0.964
26,GGACUUAUGCCGACAGCUUTT against Tnni3,inactive: -1.18

row,Sequence,z-score
1,GGAACUGGAUCAAGAAUUUTT against 2810432O22Rik,inactive: 1.59
2,GGGUAGAAGAAAACGAUUUTT against Sca7,inactive: -0.841
3,GCUGCACGCACUGAUCAAGTT against Tjp4,inactive: -0.696
4,GAAGCUGCACAUCACCAGCTT against BC022623,inactive: -0.52
5,GCUUGAUCUUGCAUUUGGUTT against Smyd3,inactive: -0.219
6,GGAGGGUCUCCUAAUUUUUTT against Kdelr1,inactive: 0.29
7,GGACUAAGCAGACCAUACATT against 9630033F20Rik,inactive: 0.000304
8,GGAUAAUUGCUCAAGCCUGTT against Serac1,inactive: -1.65
9,GGAACUUUAGUUUGCGUAUTT against Emp2,inactive: 0.236
10,GGAUUCAGUCAAGAAUUUGTT against Dhx29,inactive: 1.59
11,GCAUUUAAUCCUGCACUCCTT against Lrp10,inactive: 1.28
12,GGUACCAUUAGUGGAGUCCTT against Hoxb9,inactive: -0.482
13,GGCAAAGGAUCCAAGUUUGTT against 2310075C12Rik,inactive: 0.795
14,GGAUUCUGAGUGUACGUUUTT against 2810438M17Rik,inactive: -1.61
15,CCCUCUACAAUAAGAUGCATT against Rusc2,inactive: -0.879
16,CCAUAUCCCUGGACUAGAGTT against Pglyrp4,inactive: 1.33
17,GGCCUCAAGCAGACUUUGATT against Myo9b,inactive: -1.14
18,GGCACGAUGAGCUCUCCUATT against Cstb,inactive: -2.52
19,GCAUAAAUUUCAAGAGCGCTT against Perq1,inactive: -0.74
20,GGAGAAGCCAGGAGUUUACTT against Prss18,inactive: 0.614
21,CCAUAGAACAAGCUACACCTT against Cd160,inactive: -0.631
22,GGUGAAAGUUUACCUUCGATT against Kif20a,inactive: -1.18
23,CGUACCUAAGCAUACCAGCTT against Gpr20,inactive: -0.118
24,GGGACAAGUUGGAUUCUUGTT against Paf53,inactive: -1.79
25,GGGUGACUGAACUUAGAAATT against Cd209c,inactive: -1.1
26,GCAGAUCAGAGACAGAGUUTT against Olfr582,inactive: -2.56
